Results are given in words; binding and its absence hold for the method and conditions named. For some of these results: In cells and extracts the contact can be indirect. Some binding calls cover weakened binding; strength is not graded here. For some of these results: Sequences can lack the tags named with a protein. Values belong to the molecule of their own block, whether it stands above or below them.
Tests used:
[1] = molecular target: T1, Aplip1-GFP (pan-neuronally driven cDNA construct) (D. melanogaster) (UniProt Q9W0K0); assay: co-IP; anti-GFP (GFP-Trap-A beads) from adult fly head extract (synaptic membrane / active zone protein-enriched fraction) of elav-Gal4 > UAS-Aplip1^GFP; deoxycholate and Triton X-100 lysate, overnight 4°C; Western blot; controls plain beads and GFP trapped beads
T1 sequence: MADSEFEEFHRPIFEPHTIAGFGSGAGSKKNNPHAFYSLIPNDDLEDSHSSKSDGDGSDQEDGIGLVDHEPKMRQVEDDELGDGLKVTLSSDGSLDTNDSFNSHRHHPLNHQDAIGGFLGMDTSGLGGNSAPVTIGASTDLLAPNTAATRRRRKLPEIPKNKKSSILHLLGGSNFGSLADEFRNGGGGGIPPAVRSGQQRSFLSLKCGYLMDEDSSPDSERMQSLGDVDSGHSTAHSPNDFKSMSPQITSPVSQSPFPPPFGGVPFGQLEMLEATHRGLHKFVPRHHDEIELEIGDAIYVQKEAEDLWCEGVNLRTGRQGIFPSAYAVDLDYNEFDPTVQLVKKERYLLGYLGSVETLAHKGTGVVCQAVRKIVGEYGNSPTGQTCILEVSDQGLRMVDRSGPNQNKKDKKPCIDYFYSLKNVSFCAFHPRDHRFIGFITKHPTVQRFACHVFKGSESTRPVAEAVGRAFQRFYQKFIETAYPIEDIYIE

By UniProt entry, the sequences of proteins in these tests, tags left out.
UniProt A0A0B4K7K9: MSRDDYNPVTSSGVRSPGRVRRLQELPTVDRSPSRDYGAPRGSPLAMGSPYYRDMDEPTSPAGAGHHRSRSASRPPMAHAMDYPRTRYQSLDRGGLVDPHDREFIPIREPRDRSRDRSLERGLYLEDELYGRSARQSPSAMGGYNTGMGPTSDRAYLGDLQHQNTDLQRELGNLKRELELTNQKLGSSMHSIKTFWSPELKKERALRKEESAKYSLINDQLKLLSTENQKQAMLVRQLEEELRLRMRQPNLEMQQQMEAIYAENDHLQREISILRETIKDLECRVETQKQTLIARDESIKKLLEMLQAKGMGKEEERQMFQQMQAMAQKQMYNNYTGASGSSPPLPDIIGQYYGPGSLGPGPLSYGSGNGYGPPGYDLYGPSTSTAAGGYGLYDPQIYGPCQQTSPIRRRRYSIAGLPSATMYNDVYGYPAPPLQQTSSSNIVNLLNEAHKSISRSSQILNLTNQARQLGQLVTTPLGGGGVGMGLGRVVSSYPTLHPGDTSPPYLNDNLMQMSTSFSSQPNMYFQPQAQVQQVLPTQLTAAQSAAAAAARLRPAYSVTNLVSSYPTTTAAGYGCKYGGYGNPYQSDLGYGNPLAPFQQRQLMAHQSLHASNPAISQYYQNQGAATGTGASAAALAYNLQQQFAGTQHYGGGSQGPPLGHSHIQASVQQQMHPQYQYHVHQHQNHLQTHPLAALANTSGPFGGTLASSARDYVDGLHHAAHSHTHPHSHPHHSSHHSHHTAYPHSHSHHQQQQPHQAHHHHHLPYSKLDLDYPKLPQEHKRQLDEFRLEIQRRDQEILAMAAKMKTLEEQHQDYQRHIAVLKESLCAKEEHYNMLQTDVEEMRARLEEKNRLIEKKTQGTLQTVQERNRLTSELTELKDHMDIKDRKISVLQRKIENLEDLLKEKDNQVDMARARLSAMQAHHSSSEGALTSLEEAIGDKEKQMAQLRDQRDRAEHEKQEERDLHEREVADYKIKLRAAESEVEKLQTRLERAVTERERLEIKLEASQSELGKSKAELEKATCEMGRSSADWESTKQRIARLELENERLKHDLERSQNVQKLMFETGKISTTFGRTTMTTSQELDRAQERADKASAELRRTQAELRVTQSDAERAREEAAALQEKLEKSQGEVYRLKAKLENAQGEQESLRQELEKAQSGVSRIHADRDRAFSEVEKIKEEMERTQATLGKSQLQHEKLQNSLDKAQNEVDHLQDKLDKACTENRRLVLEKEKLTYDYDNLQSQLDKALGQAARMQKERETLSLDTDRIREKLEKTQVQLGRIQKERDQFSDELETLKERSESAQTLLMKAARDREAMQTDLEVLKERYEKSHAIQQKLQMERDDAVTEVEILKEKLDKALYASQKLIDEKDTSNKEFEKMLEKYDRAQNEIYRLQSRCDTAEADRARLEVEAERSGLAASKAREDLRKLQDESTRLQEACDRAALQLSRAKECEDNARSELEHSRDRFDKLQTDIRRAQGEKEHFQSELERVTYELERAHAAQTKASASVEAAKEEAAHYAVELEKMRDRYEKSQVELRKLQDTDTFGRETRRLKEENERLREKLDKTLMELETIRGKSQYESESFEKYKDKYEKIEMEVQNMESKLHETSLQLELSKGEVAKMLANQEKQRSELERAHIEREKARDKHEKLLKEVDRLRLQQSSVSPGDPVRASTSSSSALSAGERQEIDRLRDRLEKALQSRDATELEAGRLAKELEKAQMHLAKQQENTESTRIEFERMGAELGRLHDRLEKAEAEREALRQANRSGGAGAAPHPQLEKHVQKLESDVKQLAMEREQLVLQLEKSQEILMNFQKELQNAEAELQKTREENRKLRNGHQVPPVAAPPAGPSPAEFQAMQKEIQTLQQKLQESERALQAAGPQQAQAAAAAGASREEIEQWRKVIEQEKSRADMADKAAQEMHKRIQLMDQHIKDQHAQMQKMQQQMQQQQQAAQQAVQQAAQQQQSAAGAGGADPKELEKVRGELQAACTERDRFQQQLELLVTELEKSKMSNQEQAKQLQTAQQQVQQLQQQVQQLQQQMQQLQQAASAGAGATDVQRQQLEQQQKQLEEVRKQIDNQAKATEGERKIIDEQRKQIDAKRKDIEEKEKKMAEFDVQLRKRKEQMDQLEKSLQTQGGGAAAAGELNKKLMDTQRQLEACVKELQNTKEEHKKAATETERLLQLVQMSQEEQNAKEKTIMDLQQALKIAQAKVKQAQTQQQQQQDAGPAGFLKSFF

[2] = molecular target: T2, RBP SH3-I (ITC construct) (D. melanogaster); assay: ITC; 25°C, iTC200; RBP SH3-II and SH3-III at 150 µM, SH3-II+III at 78 µM in the cell, titrated with 16 injections of 2.5 µl peptide at 2 mM; 10 mM Tris-HCl pH 7.4, 100 mM NaCl; 'One Set of Sites' model; both purified
T2 sequence: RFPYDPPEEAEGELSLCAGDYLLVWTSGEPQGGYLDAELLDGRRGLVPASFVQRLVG

[3] = molecular target: T3, RBP SH3-II+III (yeast two-hybrid bait fragment, 209 AA) (D. melanogaster); assay: two-hybrid; large-scale screen, LexA system (pB27 bait, pP6 prey), RBP SH3-II+III as bait against the HYBRIGENICS D. melanogaster adult head library; RIM and Cac clones not shown
T3 sequence: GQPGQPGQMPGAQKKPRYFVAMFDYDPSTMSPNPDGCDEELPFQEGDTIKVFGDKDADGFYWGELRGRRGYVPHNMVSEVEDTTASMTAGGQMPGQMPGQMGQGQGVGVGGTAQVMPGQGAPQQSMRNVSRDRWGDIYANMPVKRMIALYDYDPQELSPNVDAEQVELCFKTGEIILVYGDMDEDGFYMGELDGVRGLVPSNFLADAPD

[4] = molecular target: T4, RBP SH3-II (yeast two-hybrid bait) (D. melanogaster); assay: two-hybrid; semi-quantitative liquid ß-galactosidase assay; RBP constructs as bait (pB27), Aplip1 fragments as prey; n = 3 independent experiments
T4 sequence: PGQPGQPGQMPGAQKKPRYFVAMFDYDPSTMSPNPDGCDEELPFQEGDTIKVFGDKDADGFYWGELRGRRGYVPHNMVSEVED

[5] = molecular target: T5, RBP SH3-III (yeast two-hybrid bait) (D. melanogaster); assay: as above
T5 sequence: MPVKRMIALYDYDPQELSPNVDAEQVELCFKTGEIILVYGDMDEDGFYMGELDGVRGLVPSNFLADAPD

Molecule: Bruchpilot (BRP), endogenous (from UniProt A0A0B4K7K9 1-2238)
- binding [1]: binds

B1: Aplip-PxxP1 peptide (149-…-163) (peptide)
peptide: TRRRRKLPEIPKNKK
modifications: N-terminal acetylation; C-terminal amidation
- binding [2]: no binding (tested: peptide at 2 mM in the syringe)

B4: Aplip1-PXXP2 (yeast two-hybrid prey fragment, 100 AA) (domain or fragment)
chain: LLGGSNFGSLADEFRNGGGGGIPPAVRSGQQRSFLSLKCGYLMDEDSSPDSERMQSLGDVDSGHSTAHSPNDFKSMSPQITSPVSQSPFPPPFGGVPFGQ
- binding [4]: no binding
- binding [5]: no binding

Further lines, results first:

- binding [3]: binds
B2: Aplip1 full length (yeast two-hybrid prey clone) (protein, UniProt Q9W0K0 1-490)
chain: T1 sequence

- binding [4]: no binding
- binding [5]: no binding
B3: Aplip1-AXXA1 (yeast two-hybrid prey fragment, 139 AA) (domain or fragment)
chain: EDDELGDGLKVTLSSDGSLDTNDSFNSHRHHPLNHQDAIGGFLGMDTSGLGGNSAPVTIGASTDLLAPNTAATRRRRKLAEIAKNKKSSILHLLGGSNFGSLADEFRNGGGGGIPPAVRSGQQRSFLSLKCGYLMDEDS

Source: PMC4536467, “A high affinity RIM-binding protein/Aplip1 interaction prevents the formation of ectopic axonal active zones” (eLife, 2015)
